These are yes or no findings as the source states them, for the method shown. Binding seen in cells or lysates may run through a third protein. A yes stands for co-enrichment or nearness to the bait. Other partners may have been found.
B1: NOL6 (protein, UniProt Q9H6R4 1-1146)
chain: MGPAPAGEQLRGATGEPEVMEPALEGTGKEGKKASSRKRTLAEPPAKGLLQPVKLSRAELYKEPTNEELNRLRETEILFHSSLLRLQVEELLKEVRLSEKKKDRIDAFLREVNQRVVRVPSVPETELTDQAWLPAGVRVPLHQVPYAVKGCFRFLPPAQVTVVGSYLLGTCIRPDINVDVALTMPREILQDKDGLNQRYFRKRALYLAHLAHHLAQDPLFGSVCFSYTNGCHLKPSLLLRPRGKDERLVTVRLHPCPPPDFFRPCRLLPTKNNVRSAWYRGQSPAGDGSPEPPTPRYNTWVLQDTVLESHLQLLSTILSSAQGLKDGVALLKVWLRQRELDKGQGGFTGFLVSMLVVFLVSTRKIHTTMSGYQVLRSVLQFLATTDLTVNGISLCLSSDPSLPALADFHQAFSVVFLDSSGHLNLCADVTASTYHQVQHEARLSMMLLDSRADDGFHLLLMTPKPMIRAFDHVLHLRPLSRLQAACHRLKLWPELQDNGGDYVSAALGPLTTLLEQGLGARLNLLAHSRPPVPEWDISQDPPKHKDSGTLTLGLLLRPEGLTSVLELGPEADQPEAAKFRQFWGSRSELRRFQDGAIREAVVWEAASMSQKRLIPHQVVTHLLALHADIPETCVHYVGGPLDALIQGLKETSSTGEEALVAAVRCYDDLSRLLWGLEGLPLTVSAVQGAHPVLRYTEVFPPTPVRPAFSFYETLRERSSLLPRLDKPCPAYVEPMTVVCHLEGSGQWPQDAEAVQRVRAAFQLRLAELLTQQHGLQCRATATHTDVLKDGFVFRIRVAYQREPQILKEVQSPEGMISLRDTAASLRLERDTRQLPLLTSALHGLQQQHPAFSGVARLAKRWVRAQLLGEGFADESLDLVAAALFLHPEPFTPPSSPQVGFLRFLFLVSTFDWKNNPLFVNLNNELTVEEQVEIRSGFLAARAQLPVMVIVTPQDRKNSVWTQDGPSAQILQQLVVLAAEALPMLEKQLMDPRGPGDIRTVFRPPLDIYDVLIRLSPRHIPRHRQAVDSPAASFCRGLLSQPGPSSLMPVLGYDPPQLYLTQLREAFGDLALFFYDQHGGEVIGVLWKPTSFQPQPFKASSTKGRMVMSRGGELVMVPNVEAILEDFAVLGEGLVQTVEARSERWTV
B2: CLASP2 (protein, UniProt O75122 1-1294)
chain: MAMGDDKSFDDEESVDGNRPSSAASAFKVPAPKTSGNPANSARKPGSAGGPKVGGASKEGGAGAVDEDDFIKAFTDVPSIQIYSSRELEETLNKIREILSDDKHDWDQRANALKKIRSLLVAGAAQYDCFFQHLRLLDGALKLSAKDLRSQVVREACITVAHLSTVLGNKFDHGAEAIVPTLFNLVPNSAKVMATSGCAAIRFIIRHTHVPRLIPLITSNCTSKSVPVRRRSFEFLDLLLQEWQTHSLERHAAVLVETIKKGIHDADAEARVEARKTYMGLRNHFPGEAETLYNSLEPSYQKSLQTYLKSSGSVASLPQSDRSSSSSQESLNRPFSSKWSTANPSTVAGRVSAGSSKASSLPGSLQRSRSDIDVNAAAGAKAHHAAGQSVRSGRLGAGALNAGSYASLEDTSDKLDGTASEDGRVRAKLSAPLAGMGNAKADSRGRSRTKMVSQSQPGSRSGSPGRVLTTTALSTVSSGVQRVLVNSASAQKRSKIPRSQGCSREASPSRLSVARSSRIPRPSVSQGCSREASRESSRDTSPVRSFQPLASRHHSRSTGALYAPEVYGASGPGYGISQSSRLSSSVSAMRVLNTGSDVEEAVADALKKPARRRYESYGMHSDDDANSDASSACSERSYSSRNGSIPTYMRQTEDVAEVLNRCASSNWSERKEGLLGLQNLLKNQRTLSRVELKRLCEIFTRMFADPHGKRVFSMFLETLVDFIQVHKDDLQDWLFVLLTQLLKKMGADLLGSVQAKVQKALDVTRESFPNDLQFNILMRFTVDQTQTPSLKVKVAILKYIETLAKQMDPGDFINSSETRLAVSRVITWTTEPKSSDVRKAAQSVLISLFELNTPEFTMLLGALPKTFQDGATKLLHNHLRNTGNGTQSSMGSPLTRPTPRSPANWSSPLTSPTNTSQNTLSPSAFDYDTENMNSEDIYSSLRGVTEAIQNFSFRSQEDMNEPLKRDSKKDDGDSMCGGPGMSDPRAGGDATDSSQTALDNKASLLHSMPTHSSPRSRDYNPYNYSDSISPFNKSALKEAMFDDDADQFPDDLSLDHSDLVAELLKELSNHNERVEERKIALYELMKLTQEESFSVWDEHFKTILLLLLETLGDKEPTIRALALKVLREILRHQPARFKNYAELTVMKTLEAHKDPHKEVVRSAEEAASVLATSISPEQCIKVLCPIIQTADYPINLAAIKMQTKVIERVSKETLNLLLPEIMPGLIQGYDNSESSVRKACVFCLVAVHAVIGDELKPHLSQLTGSKMKLLNLYIKRAQTGSGGADPTTDVSGQS
B3: RHAMM (protein, UniProt O75330 1-724)
chain: MSFPKAPLKRFNDPSGCAPSPGAYDVKTLEVLKGPVSFQKSQRFKQQKESKQNLNVDKDTTLPASARKVKSSESKESQKNDKDLKILEKEIRVLLQERGAQDRRIQDLETELEKMEARLNAALREKTSLSANNATLEKQLIELTRTNELLKSKFSENGNQKNLRILSLELMKLRNKRETKMRGMMAKQEGMEMKLQVTQRSLEESQGKIAQLEGKLVSIEKEKIDEKSETEKLLEYIEEISCASDQVEKYKLDIAQLEENLKEKNDEILSLKQSLEENIVILSKQVEDLNVKCQLLEKEKEDHVNRNREHNENLNAEMQNLKQKFILEQQEREKLQQKELQIDSLLQQEKELSSSLHQKLCSFQEEMVKEKNLFEEELKQTLDELDKLQQKEEQAERLVKQLEEEAKSRAEELKLLEEKLKGKEAELEKSSAAHTQATLLLQEKYDSMVQSLEDVTAQFESYKALTASEIEDLKLENSSLQEKAAKAGKNAEDVQHQILATESSNQEYVRMLLDLQTKSALKETEIKEITVSFLQKITDLQNQLKQQEEDFRKQLEDEEGRKAEKENTTAELTEEINKWRLLYEELYNKTKPFQLQLDAFEVEKQALLNEHGAAQEQLNKIRDSYAKLLGHQNLKQKIKHVVKLKDENSQLKSEVSKLRCQLAKKKQSETKLQEELNKVLGIKHFDPSKAFHHESKENFALKTPLKEGNTNCYRAPMECQESWK

The chains behind the UniProt entries cited, without tags or fusion partners.
UniProt O14965: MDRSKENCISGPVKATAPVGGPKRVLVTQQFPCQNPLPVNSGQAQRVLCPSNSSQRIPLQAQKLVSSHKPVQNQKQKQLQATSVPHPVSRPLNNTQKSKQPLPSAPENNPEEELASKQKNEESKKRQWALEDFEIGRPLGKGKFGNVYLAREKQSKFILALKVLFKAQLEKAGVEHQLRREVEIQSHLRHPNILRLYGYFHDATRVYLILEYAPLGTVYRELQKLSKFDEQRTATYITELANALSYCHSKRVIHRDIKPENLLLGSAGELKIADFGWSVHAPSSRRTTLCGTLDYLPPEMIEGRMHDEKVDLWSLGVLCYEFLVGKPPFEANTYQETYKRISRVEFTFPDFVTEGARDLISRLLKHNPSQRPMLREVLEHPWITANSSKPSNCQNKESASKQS
UniProt Q7Z460: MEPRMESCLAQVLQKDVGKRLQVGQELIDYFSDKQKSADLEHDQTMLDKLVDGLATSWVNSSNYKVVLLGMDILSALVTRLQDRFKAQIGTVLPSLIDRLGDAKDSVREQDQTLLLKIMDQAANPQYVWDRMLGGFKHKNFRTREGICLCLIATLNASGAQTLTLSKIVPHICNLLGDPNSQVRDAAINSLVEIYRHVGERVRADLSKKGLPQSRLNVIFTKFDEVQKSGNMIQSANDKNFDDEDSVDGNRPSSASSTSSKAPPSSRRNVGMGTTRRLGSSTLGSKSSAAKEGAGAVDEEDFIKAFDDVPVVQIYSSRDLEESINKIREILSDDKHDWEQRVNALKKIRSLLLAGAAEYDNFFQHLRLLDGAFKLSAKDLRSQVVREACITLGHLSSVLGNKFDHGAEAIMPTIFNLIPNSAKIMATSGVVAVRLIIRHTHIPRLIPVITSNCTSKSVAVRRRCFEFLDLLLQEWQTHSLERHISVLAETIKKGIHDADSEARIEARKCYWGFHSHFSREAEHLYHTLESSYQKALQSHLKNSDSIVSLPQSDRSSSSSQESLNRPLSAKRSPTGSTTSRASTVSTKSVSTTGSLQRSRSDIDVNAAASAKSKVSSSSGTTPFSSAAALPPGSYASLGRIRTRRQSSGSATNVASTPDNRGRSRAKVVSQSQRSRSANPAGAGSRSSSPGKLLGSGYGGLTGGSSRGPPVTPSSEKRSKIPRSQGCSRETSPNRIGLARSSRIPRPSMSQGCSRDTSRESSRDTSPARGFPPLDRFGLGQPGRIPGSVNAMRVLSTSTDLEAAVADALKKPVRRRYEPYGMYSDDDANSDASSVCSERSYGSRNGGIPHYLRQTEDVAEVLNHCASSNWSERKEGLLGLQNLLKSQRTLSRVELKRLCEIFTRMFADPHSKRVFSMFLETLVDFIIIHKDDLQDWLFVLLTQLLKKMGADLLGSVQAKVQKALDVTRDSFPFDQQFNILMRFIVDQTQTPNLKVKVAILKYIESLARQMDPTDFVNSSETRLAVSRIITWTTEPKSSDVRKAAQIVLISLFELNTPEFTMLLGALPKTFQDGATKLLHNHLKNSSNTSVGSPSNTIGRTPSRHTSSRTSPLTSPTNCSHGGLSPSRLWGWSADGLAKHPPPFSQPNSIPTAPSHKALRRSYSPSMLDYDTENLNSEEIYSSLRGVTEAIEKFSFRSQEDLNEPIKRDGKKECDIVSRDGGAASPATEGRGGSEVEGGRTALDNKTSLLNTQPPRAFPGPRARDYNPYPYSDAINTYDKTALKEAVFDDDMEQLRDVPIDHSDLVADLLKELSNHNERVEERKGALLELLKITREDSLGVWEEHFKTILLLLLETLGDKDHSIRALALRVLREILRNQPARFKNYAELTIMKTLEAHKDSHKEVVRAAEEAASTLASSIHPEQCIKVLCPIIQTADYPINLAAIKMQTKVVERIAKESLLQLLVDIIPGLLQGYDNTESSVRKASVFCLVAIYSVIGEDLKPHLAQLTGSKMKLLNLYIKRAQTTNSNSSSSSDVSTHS

Molecular target: Aurora kinase A (human (endogenous in HeLa and A549)) (UniProt O14965)
Assay: affinity purification with mass spectrometry; AURKA antibody IP from lysate of HeLa cells synchronized in prometaphase (4 mg), protein A/G magnetic beads, rabbit IgG as control; beads split, untreated or RNase cocktail (RNase A, I, III, H, T1) 1 h at 4 °C; washes 150 mM then 300 mM KCl, 0.5% NP-40; LC-MS/MS

Row | Molecule | binding
1 | CLASP1 (from UniProt Q7Z460 1-1538) | binds
2 | B1 | binds
3 | B2 | binds
4 | B3 | binds
